Source: patent US20220074941A1, “HSP90 COMBINATION THERAPY” (Sloan-Kettering Institute for Cancer Research, priority 2011, published 2022)

B1: Serine/threonine-protein phosphatase 4 regulatory subunit 1 (protein, UniProt Q8TF05 1-950, looked up)
Serine/threonine-protein …: MADLSLLQEDLQEDADGFGVDDYSSESDVIIIPSALDFVSQDEMLTPLGRLDKYAASENIFNRQMVARSLLDTLREVCDDERDCIAVLERISRLADDSEPTVRAELMEQVPHIALFCQENRPSIPYAFSKFLLPIVVRYLADQNNQVRKTSQAALLALLEQELIERFDVETKVCPVLIELTAPDSNDDVKTEAVAIMCKMAPMVGKDITERLILPRFCEMCCDCRMFHVRKVCAANFGDICSVVGQQATEEMLLPRFFQLCSDNVWGVRKACAECFMAVSCATCQEIRRTKLSALFINLISDPSRWVRQAAFQSLGPFISTFANPSSSGQYFKEESKSSEEMSVENKNRTRDQEAPEDVQVRPEDTPSDLSVSNSSVILENTMEDHAAEASGKPLGEISVPLDSSLLCTLSSESHQEAASNENDKKPGNYKSMLRPEVGTTSQDSALLDQELYNSFHFWRTPLPEIDLDIELEQNSGGKPSPEGPEEESEGPVPSSPNITMATRKELEEMIENLEPHIDDPDVKAQVEVLSAALRASSLDAHEETISIEKRSDLQDELDINELPNCKINQEDSVPLISDAVENMDSTLHYIHSDSDLSNNSSFSPDEERRTKVQDVVPQALLDQYLSMTDPSRAQTVDTEIAKHCAYSLPGVALTLGRQNWHCLRETYETLASDMQWKVRRTLAFSIHELAVILGDQLTAADLVPIFNGFLKDLDEVRIGVLKHLHDFLKLLHIDKRREYLYQLQEFLVTDNSRNWRFRAELAEQLILLLELYSPRDVYDYLRPIALNLCADKVSSVRWISYKLVSEMVKKLHAATPPTFGVDLINELVENFGRCPKWSGRQAFVFVCQTVIEDDCLPMDQFAVHLMPHLLTLANDRVPNVRVLLAKTLRQTLLEKDYFLASASCHQEAVEQTIMALQMDRDSDVKYFASIHPASTKISEDAMSTASSTY
B2: Mitogen-activated protein kinase 4; ERK4 (protein, UniProt P31152 1-587, looked up)
Mitogen-activated protein …: MAEKGDCIASVYGYDLGGRFVDFQPLGFGVNGLVLSAVDSRACRKVAVKKIALSDARSMKHALREIKIIRRLDHDNIVKVYEVLGPKGTDLQGELFKFSVAYIVQEYMETDLARLLEQGTLAEEHAKLFMYQLLRGLKYIHSANVLHRDLKPANIFISTEDLVLKIGDFGLARIVDQHYSHKGYLSEGLVTKWYRSPRLLLSPNNYTKAIDMWAAGCILAEMLTGRMLFAGAHELEQMQLILETIPVIREEDKDELLRVMPSFVSSTWEVKRPLRKLLPEVNSEAIDFLEKILTFNPMDRLTAEMGLQHPYMSPYSCPEDEPTSQHPFRIEDEIDDIVLMAANQSQLSNWDTCSSRYPVSLSSDLEWRPDRCQDASEVQRDPRAGSAPLAEDVQVDPRKDSHSSSERFLEQSHSSMERAFEADYGRSCDYKVGSPSYLDKLLWRDNKPHHYSEPKLILDLSHWKQAAGAPPTATGLADTGAREDEPASLFLEIAQWVKSTQGGPEHASPPADDPERRLSASPPGRPAPVDGGASPQFDLDVFISRALKLCTKPEDLPDNKLGDLNGACIPEHPGDLVQTEAFSKERW
B3: Cell division protein kinase 7 (protein, UniProt P50613 2-346, looked up)
Cyclin-dependent kinase 7: ALDVKSRAKRYEKLDFLGEGQFATVYKARDKNTNQIVAIKKIKLGHRSEAKDGINRTALREIKLLQELSHPNIIGLLDAFGHKSNISLVFDFMETDLEVIIKDNSLVLTPSHIKAYMLMTLQGLEYLHQHWILHRDLKPNNLLLDENGVLKLADFGLAKSFGSPNRAYTHQVVTRWYRAPELLFGARMYGVGVDMWAVGCILAELLLRVPFLPGDSDLDQLTRIFETLGTPTEEQWPDMCSLPDYVTFKSFPGIPLHHIFSAAGDDLLDLIQGLFLFNPCARITATQALKMKYFSNRPGPTPGCQLPRPNCPVETLKEQSNPALAIKRKRTEALEQGGLPKKLIF
B4: 28 kDa heat- and acid-stable phosphoprotein (protein, UniProt Q13442 1-181, looked up)
28 kDa heat- and acid-stable …: MPKGGRKGGHKGRARQYTSPEEIDAQLQAEKQKAREEEEQKEGGDGAAGDPKKEKKSLDSDESEDEEDDYQQKRKGVEGLIDIENPNRVAQTTKKVTQLDLDGPKELSRREREEIEKQKAKERYMKMHLAGKTEQAKADLARLAIIRKQREEAARKKEEERKAKDDATLSGKRMQSLSLNK
B5: Autophagy protein 5 (protein, UniProt Q9H1Y0 1-275, looked up)
Autophagy protein 5: MTDDKDVLRDVWFGRIPTCFTLYQDEITEREAEPYYLLLPRVSYLTLVTDKVKKHFQKVMRQEDISEIWFEYEGTPLKWHYPIGLLFDLLASSSALPWNITVHFKSFPEKDLLHCPSKDAIEAHFMSCMKEADALKHKSQVINEMQKKDHKQLWMGLQNDRFDQFWAINRKLMEYPAEENGFRYIPFRIYQTTTERPFIQKLFRPVAADGQLHTLGDLLKEVCPSAIDPEDGEKKNQVMIHGIEPMLETPLQWLSEHLSYPDNFLHISIIPQPTD
B6: Transcriptional repressor p66-beta (protein, UniProt Q8WXI9 1-593, looked up)
Transcriptional repressor …: MDRMTEDALRLNLLKRSLDPADERDDVLAKRLKMEGHEAMERLKMLALLKRKDLANLEVPHELPTKQDGSGVKGYEEKLNGNLRPHGDNRTAGRPGKENINDEPVDMSARRSEPERGRLTPSPDIIVLSDNEASSPRSSSRMEERLKAANLEMFKGKGIEERQQLIKQLRDELRLEEARLVLLKKLRQSQLQKENVVQKTPVVQNAASIVQPSPAHVGQQGLSKLPSRPGAQGVEPQNLRTLQGHSVIRSATNTTLPHMLMSQRVIAPNPAQLQGQRGPPKPGLVRTTTPNMNPAINYQPQSSSSVPCQRTTSSAIYMNLASHIQPGTVNRVSSPLPSPSAMTDAANSQAAAKLALRKQLEKTLLEIPPPKPPAPLLHFLPSAANSEFIYMVGLEEVVQSVIDSQGKSCASLLRVEPFVCAQCRTDFTPHWKQEKNGKILCEQCMTSNQKKALKAEHTNRLKNAFVKALQQEQEIEQRLQQQAALSPTTAPAVSSVSKQETIMRHHTLRQAPQPQSSLQRGIPTSARSMLSNFAQAPQLSVPGGLLGMPGVNIAYLNTGIGGHKGPSLADRQREYLLDMIPPRSISQSISGQK
B7: Phosducin-like protein 3 (protein, UniProt Q9H2J4 1-239, looked up)
Phosducin-like protein 3: MQDPNADTEWNDILRKKGILPPKESLKELEEEAEEEQRILQQSVVKTYEDMTLEELEDHEDEFNEEDERAIEMYRRRRLAEWKATKLKNKFGEVLEISGKDYVQEVTKAGEGLWVILHLYKQGIPLCALINQHLSGLARKFPDVKFIKAISTTCIPNYPDRNLPTIFVYLEGDIKAQFIGPLVFGGMNLTRDELEWKLSESGAIMTDLEENPKKPIEDVLLSSVRRSVLMKRDSDSEGD
B8: Protein CREG1 (protein, UniProt O75629 32-220, looked up)
Protein CREG1: RGGRDHGDWDEASRLPPLPPREDAARVARFVTHVSDWGALATISTLEAVRGRPFADVLSLSDGPPGAGSGVPYFYLSPLQLSVSNLQENPYATLTMTLAQTNFCKKHGFDPQSPLCVHIMLSGTVTKVNETEMDIAKHSLFIRHPEMKTWPSSHNWFFAKLNITNIWVLDYFGGPKIVTPEEYYNVTVQ
B9: Ras suppressor protein 1 (protein, UniProt Q15404 2-277, looked up)
Ras suppressor protein 1: SKSLKKLVEESREKNQPEVDMSDRGISNMLDVNGLFTLSHITQLVLSHNKLTMVPPNIAELKNLEVLNFFNNQIEELPTQISSLQKLKHLNLGMNRLNTLPRGFGSLPALEVLDLTYNNLSENSLPGNFFYLTTLRALYLSDNDFEILPPDIGKLTKLQILSLRDNDLISLPKEIGELTQLKELHIQGNRLTVLPPELGNLDLTGQKQVFKAENNPWVTPIADQFQLGVSHVFEYIRSETYKYLYGRHMQANPEPPKKNNDKSKKISRKPLAAKNR
B10: Serine/threonine-protein kinase RIO2 (protein, UniProt Q9BVS4 1-552, looked up)
Serine/threonine-protein …: MGKVNVAKLRYMSRDDFRVLTAVEMGMKNHEIVPGSLIASIASLKHGGCNKVLRELVKHKLIAWERTKTVQGYRLTNAGYDYLALKTLSSRQVVESVGNQMGVGKESDIYIVANEEGQQFALKLHRLGRTSFRNLKNKRDYHKHRHNVSWLYLSRLSAMKEFAYMKALYERKFPVPKPIDYNRHAVVMELINGYPLCQIHHVEDPASVYDEAMELIVKLANHGLIHGDFNEFNLILDESDHITMIDFPQMVSTSHPNAEWYFDRDVKCIKDFFMKRFSYESELFPTFKDIRREDTLDVEVSASGYTKEMQADDELLHPLGPDDKNIETKEGSEFSFSDGEVAEKAEVYGSENESERNCLEESEGCYCRSSGDPEQIKEDSLSEESADARSFEMTEFNQALEEIKGQVVENNSVTEFSEEKNRTENYNRQDGQRVQGGVPAGSDEYEDECPHLIALSSLNREFRPFRDEENVGAMNQYRTRTLSITSSGSAVSCSTIPPELVKQKVKRQLTKQQKSAVRRRLQKGEANIFTKQRRENMQNIKSSLEAASFWGE

Tested on: Hsp90 complexes in K562 cell extract
Experiment: Nano-LC-MS/MS of PU-beads pull-downs
Assay type: binding
Conditions: for MAXIMUM matched peptides: maximum over fractions JA01-JA14; for Total fmol: protein isolated in PU-beads pull-downs, Waters Xevo QTof MS; for Matched Peptides by Fraction JA06: Run1, gel size cut 40-60; for Matched Peptides by Fraction JA13: Run2, gel size cut 40-60; for Matched Peptides by Fraction JA07: Run1, gel size cut <40; for Matched Peptides by Fraction JA05: Run1, gel size cut 60-80; for Matched Peptides by Fraction JA14: Run2, gel size cut <40
How it was run: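 Lysates pre-cleared overnight at 4 °C with control beads, then pulled down with PU-beads or control beads; eluted proteins (2% SDS boil) gel-separated and analysed by nano LC-MS/MS on a QTof. Mascot identification (p<0.05), spectral counts and sequence coverage evaluated in Scaffold.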

| Molecule | Matched Peptides by Fraction JA03 (PU-beads pull-down, Run1, gel size cut 110-150) | Matched Peptides by Fraction JA10 (PU-beads pull-down, Run2, gel size cut 110-150) | MAXIMUM matched peptides (PU-beads pull-down) | Total fmol | Matched Peptides by Fraction JA06 (PU-beads pull-down) | Matched Peptides by Fraction JA13 (PU-beads pull-down) | Matched Peptides by Fraction JA07 (PU-beads pull-down) | Matched Peptides by Fraction JA05 (PU-beads pull-down) | Matched Peptides by Fraction JA14 (PU-beads pull-down) | Matched Peptides by Fraction JA04 (PU-beads pull-down, Run1, gel size cut 80-110) |
| --- | --- | --- | --- | --- | --- | --- | --- | --- | --- | --- |
| B1 | 13 | 15 | 15 | 9.6747 fmol |  |  |  |  |  |  |
| B2 |  |  | 7 | 1.9160 fmol | 7 | 6 |  |  |  |  |
| B3 |  |  | 9 | 3.8042 fmol | 6 | 9 |  |  |  |  |
| B4 |  |  | 2 | 3.7688 fmol |  |  | 2 |  |  |  |
| B5 |  |  | 9 | 2.0138 fmol |  |  |  | 9 |  |  |
| B6 |  |  | 13 | 1.5826 fmol |  |  |  | 13 |  |  |
| B7 |  |  | 5 | 4.3938 fmol |  |  | 4 |  | 5 |  |
| B8 |  |  | 3 | 8.0371 fmol |  |  | 2 |  | 3 |  |
| B9 |  |  | 5 | 3.2914 fmol |  |  | 5 |  | 4 |  |
| B10 |  |  | 6 | 3.6676 fmol |  |  |  |  |  | 6 |
